According to patent publication US20120315254A1, “METHODS AND COMPOSITIONS FOR ENHANCING FAT GRAFT SURVIVAL” (Sebana Medical Ltd., priority 2010, published 2012):
For at least one compound, name, drawing or mass did not settle the structure.

System: human umbilical vein endothelial cells (HUVECs)
Test: HUVEC proliferation ([3H]-thymidine incorporation)
Format: cell-based
Settings: inhibitor exposure for 3 hours, without EPO

COC[C@H]1OC(=O)c2coc3c2[C@@]1(C)C1=C(C3=O)[C@@H]2CCC(=O)[C@@]2(C)C[C@H]1OC(C)=O [wortmannin]
HUVEC proliferation: abolished HUVEC proliferation
